Laboratory results as given in PMC7819943, “Rice protein-binding microarrays: a tool to detect cis-acting elements near promoter regions in rice”.
This is one part of the list.

molecular target: T1, OsSMF1 (Oryza sativa, UniProt Q6ZLB0 1-436); experiment: protein-binding microarray (RPBM); PBS, 2% BSA, 51.3 ng/ul salmon testes DNA, 50 uM zinc acetate, 200 nM TF, 25 C, 1 h; high values mean tight binding; details: protein: recombinant; tags: N-terminal polyhistidine and DsRed monomer fusion (pET32a); chain copies: 2; label: CyDye5-dUTP incorporated in the synthesized complementary strand; 3' TTTTT single-stranded linker to array surface; dsDNA, one strand shown
T1 sequence: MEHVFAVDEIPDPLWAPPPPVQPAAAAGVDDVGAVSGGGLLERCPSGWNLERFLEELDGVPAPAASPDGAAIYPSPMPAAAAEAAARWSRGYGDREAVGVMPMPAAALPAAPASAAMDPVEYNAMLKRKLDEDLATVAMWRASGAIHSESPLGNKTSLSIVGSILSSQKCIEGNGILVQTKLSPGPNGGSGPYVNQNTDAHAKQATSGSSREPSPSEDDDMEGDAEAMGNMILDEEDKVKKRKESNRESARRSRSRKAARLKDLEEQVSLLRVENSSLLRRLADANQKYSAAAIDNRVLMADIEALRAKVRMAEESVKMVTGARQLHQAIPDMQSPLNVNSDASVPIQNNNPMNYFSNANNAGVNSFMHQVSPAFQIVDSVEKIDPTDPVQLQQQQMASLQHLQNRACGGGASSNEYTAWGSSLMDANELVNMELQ
Method in brief: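 Binding signal is defined as the fluorescence intensity of each feature in arbitrary units, read on an Axon 4000B scanner. Transcription factors with N-terminal polyhistidine and DsRed fusions came from E. coli BL21-CodonPlus and were purified on Ni–NTA. They were incubated at 200 nM for 1 h at 25 °C on a custom Agilent array that had been made double-stranded with Cy5-dUTP, with 50 µM zinc acetate present, and the array was washed.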

| Sequence | binding signal |
| --- | --- |
| CGCGAGCAGGTTGACTTGCAGCAGGGCGTGGACTGATCAACGGAGTCACCTAGTGCAG | 32700 fluorescence intensity (a.u.) |
| GGCCTGCTGCTGCTTTGGGTGGGCTGCCTCGTCACTAATCCGGAGTCACCTAGTGCAG | 8340 fluorescence intensity (a.u.) |
| ACCCACCCACCTGGCACCAATCTCGATGCAAATCCAACGGCGGAGTCACCTAGTGCAG | 3460 fluorescence intensity (a.u.) |
| GCTACCGTTTGATCTGAATCGGATGGCACAGGTTAGTCAGCGGAGTCACCTAGTGCAG | 3240 fluorescence intensity (a.u.) |
| AAACCAAAACCAAACCGAAGCTTCCCCATCTCGCGTGAACCGGAGTCACCTAGTGCAG | 40800 fluorescence intensity (a.u.) |
| TTCGGTTTTCCCTGGCTGACGAGTGACAAAACTGCAGTTGCGGAGTCACCTAGTGCAG | 3770 fluorescence intensity (a.u.) |
| TTAGTCCTTCATCTTCACTTGTGACATGGCTTGCTTGCAGCGGAGTCACCTAGTGCAG | 3680 fluorescence intensity (a.u.) |
| ATGGCCGATAAGCCGTCCACGCGTCCACGGCAATCTCGCGCGGAGTCACCTAGTGCAG | 4160 fluorescence intensity (a.u.) |
| CCCCACTAGTCCAGCTTTTGTATGACTCGTCTATGTCAGTCGGAGTCACCTAGTGCAG | 5270 fluorescence intensity (a.u.) |
| CGGCCGTCCTCGGAGAACGGGAGGAAGTCGCGTCACGGTGCGGAGTCACCTAGTGCAG | 4670 fluorescence intensity (a.u.) |
| ATCACAGGAGACTGCAACGTCATCTAAAACTCCTCGTTGGCGGAGTCACCTAGTGCAG | 6700 fluorescence intensity (a.u.) |
| GAGAACACTGACATGTGGGCCCCACAATTTCGCCGCATATCGGAGTCACCTAGTGCAG | 3700 fluorescence intensity (a.u.) |
| TCTCTAATTTATTAGAGCACCACGTGTCGGCTTGAGAGCGCGGAGTCACCTAGTGCAG | 9150 fluorescence intensity (a.u.) |
| TTGTAGGCCACAGGTAGTAGTATGACTGTATGAGTTGCAGCGGAGTCACCTAGTGCAG | 5250 fluorescence intensity (a.u.) |
| AAATGTGATGATCGTTAGTGGATGATGATGTGGCATCTGGCGGAGTCACCTAGTGCAG | 13400 fluorescence intensity (a.u.) |
| GTAGGGCACGATGATATGTCCGGGTGTCACCTTGATTTTCCGGAGTCACCTAGTGCAG | 3720 fluorescence intensity (a.u.) |
| TAGAAAGTGCCCAATTAGTATAGGTATAGATAGATAGACTCGGAGTCACCTAGTGCAG | 51000 fluorescence intensity (a.u.) |
| ATTGAAAATTCTCTACTCTTTACACGTGTCCATCATCCCACGGAGTCACCTAGTGCAG | 19100 fluorescence intensity (a.u.) |
| TGCCGATGCCCGCCTGCATGTACTATACGAACCAAAACGCCGGAGTCACCTAGTGCAG | 4590 fluorescence intensity (a.u.) |
| CTCCCATTCTTGAACAAGTAGAATTACCTCTTGCACAGCGCGGAGTCACCTAGTGCAG | 3910 fluorescence intensity (a.u.) |
| CGGATTTCGCCCGCCTCCGCCCTCGGTGTTGGAGTTTGGTCGGAGTCACCTAGTGCAG | 23800 fluorescence intensity (a.u.) |

Another view of part of the listing above.
ACCCACCCACCTGGCACCAATCTCGATGCAAATCCAACGGCGGAGTCACCTAGTGCAG
  binding signal: 3460 fluorescence intensity (a.u.)
CTCCCATTCTTGAACAAGTAGAATTACCTCTTGCACAGCGCGGAGTCACCTAGTGCAG
  binding signal: 3910 fluorescence intensity (a.u.)

Additional records.

| Sequence | binding signal |
| --- | --- |
| TCCATTTTGACCGAAAATAATAAAATAATGAGAAGAGGGTCGGAGTCACCTAGTGCAG | 34100 fluorescence intensity (a.u.) |
| CTACGACCTAGGAACAAGTAGTCCACGTATACTTCGCTGGCGGAGTCACCTAGTGCAG | 5860 fluorescence intensity (a.u.) |
| GCACCTACAATTCATTGACTAGGATTGTGCCAAGCCTGGCCGGAGTCACCTAGTGCAG | 3350 fluorescence intensity (a.u.) |
| CCCTGTGCAAGAGATAATAAGGTTACGTGGAGACCACTTGCGGAGTCACCTAGTGCAG | 6390 fluorescence intensity (a.u.) |
| TTCACAGGTTGAGCCATCCAACTGCGTGCTTGCCAAGAACCGGAGTCACCTAGTGCAG | 3190 fluorescence intensity (a.u.) |
| TCCCCTCCCCACCATTGCCGCCGCGCCGCGCCACGCCACGCGGAGTCACCTAGTGCAG | 3960 fluorescence intensity (a.u.) |
| GCAGTATATGTGTGTGTGCTTTCTTTTGGGATAGAGTCTGCGGAGTCACCTAGTGCAG | 3460 fluorescence intensity (a.u.) |
| GACTGCGAATCTGCAACTAGATAAACAAAGGAAGAACATGCGGAGTCACCTAGTGCAG | 21400 fluorescence intensity (a.u.) |
| TCAGTCATGTTATGAATTCTTGACGGTGAACACCAGCTGGCGGAGTCACCTAGTGCAG | 3140 fluorescence intensity (a.u.) |
| GCCTCACCCTCACCGCCACCCCGCCGCCGCCGATCTACACCGGAGTCACCTAGTGCAG | 3500 fluorescence intensity (a.u.) |
| TTATAAATTAAATTTTATGTAATGAAAATAATATCATTGGCGGAGTCACCTAGTGCAG | 3900 fluorescence intensity (a.u.) |
| ACACCACGCTGACATGTCAACGTGTTGTGCCACGTTAGTTCGGAGTCACCTAGTGCAG | 18400 fluorescence intensity (a.u.) |
| ATGTATTGCATAACTGTGTTGACTATTGTTGACTTGTGTACGGAGTCACCTAGTGCAG | 3200 fluorescence intensity (a.u.) |
| AAACATCAATTGTATTATCCTTGAAAAGAAGGCACATCACCGGAGTCACCTAGTGCAG | 44800 fluorescence intensity (a.u.) |
| GACCGGGCTTCACAATTTAGGGGCCCGAACCTATATAAAACGGAGTCACCTAGTGCAG | 38600 fluorescence intensity (a.u.) |
| TCCTATTACCATCTCAGGCCTCGTTGACGTAACAGGGCCGCGGAGTCACCTAGTGCAG | 4000 fluorescence intensity (a.u.) |
| TCTCCCTGCCACCGACGTCACCGCCCGCCATCGACGCCTCCGGAGTCACCTAGTGCAG | 6820 fluorescence intensity (a.u.) |
| TCTAGGCCGGCCATTGGCGGAGGAGAGGGAGGCCGGCACGCGGAGTCACCTAGTGCAG | 20700 fluorescence intensity (a.u.) |
| CCACGCTGAGTCAGCTGCCACGTCAAACAAAACTGGAGTCCGGAGTCACCTAGTGCAG | 21600 fluorescence intensity (a.u.) |
| GCCCTGCTTGTCAGCGGCTTGAGGGAGGAAAGGGAGGTGGCGGAGTCACCTAGTGCAG | 3710 fluorescence intensity (a.u.) |
| CCTCAGCCCACATCACCGGAGAGACCCCGTCGGCTCGCCGCGGAGTCACCTAGTGCAG | 4710 fluorescence intensity (a.u.) |
